PMC10965847 (EJNMMI Radiopharmacy and Chemistry, 2024)
Some peptides are written in HELM: one residue between dots, names in brackets for other building blocks, links after the first $.

Columns and labels:
[1] = general procedure: Fmoc solid-phase peptide synthesis; Rink amide resin; HBTU/DiPEA; conditions: whole synthesis, HPLC (Shimadzu), 220 nm
[2] = general procedure: Fmoc solid-phase peptide synthesis; Rink amide AM resin (loading capacity 0.67 mmol/g); HBTU/DiPEA; conditions: late stage modification step, 220 nm

PEPTIDE1{T.G.R.A.K.R.R.M.Q.Y.N.R.R.G.C.[am]}$$$$V2.0
final HPLC purity [1]: >95%

PEPTIDE1{T.G.R.A.K.R.R.M.Q.Y.N.R.R.G.[Cys(APBA)].[am]}$$$$V2.0
final HPLC purity [2]: > 95%
